Taken from: PubChem BioAssay AID1259308 (NCATS, 2017)
Shown is one part, drawn at random, of about 59,000 deposited reagents. Of all reagents, about 1,510 (2.6%) were called active. 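Calls use total luciferase alone and ignore viability, so some active siRNAs may act by altering cell number.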 Unmarked entries are inactive. Reagents against one gene are numbered here. Further read-outs or replicates are left out here. No sequences are given here.

Assay: 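Knock-downs that increase output of a recombinant reporter protein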 (primary screen)
System: human HEK293 embryonic kidney cells stably expressing firefly luciferase (HEK-CMV-Luc2-Hygro)
Reagents: single siRNA against human genes, 0.8 pmol siRNA per well
Duration: 72 h
Measurement: 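Reporter luminescence and viable-cell signal on separate replicate plates, given as percent of non-targeting control and median/MAD z-scores, plus per-cell luciferase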
Scale: total luciferase, z-score and total luciferase, % of control: higher = more reporter protein produced; luciferase per cell, z-score: higher = more reporter output per viable cell
Hit rule: 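An siRNA counts as active if its total luciferase robust z-score exceeds 3; genes with two or more such siRNAs out of three were retested with fresh siRNAs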
Calls: active = raised luciferase; inactive = no rise

gene symbol	reagent	total luciferase, z-score	total luciferase, % of control	luciferase per cell, z-score
TMEM132B (transmembrane protein 132B)	1	0.29	87.6	-0.582
TMEM132B (transmembrane protein 132B)	2	0.955	101	0.321
TMEM132B (transmembrane protein 132B)	3	-0.688	68.2	-1.52
STRAP (serine/threonine kinase receptor associated protein)	1	0.464	91.1	-0.0853
STRAP (serine/threonine kinase receptor associated protein)	2	0.639	94.6	-0.038
STRAP (serine/threonine kinase receptor associated protein)	3	0.171	85.3	-0.523
NXPE3 (neurexophilin and PC-esterase domain family member 3)	1	-0.46	72.7	-0.344
NXPE3 (neurexophilin and PC-esterase domain family member 3)	2	2	122	1.31
NXPE3 (neurexophilin and PC-esterase domain family member 3)	3	-0.937	63.2	-1.26
PCDHAC1 (protocadherin alpha subfamily C, 1)	1	-0.783	66.3	-0.907
PCDHAC1 (protocadherin alpha subfamily C, 1)	2	0.452	90.9	-0.0492
PCDHAC1 (protocadherin alpha subfamily C, 1)	3	1.28	107	1.71
SLC2A7	1	-0.87	64.6	-0.832
SLC2A7	2	-0.262	76.7	-0.443
SLC2A7	3	0.916	100	1.18
TMOD4 (tropomodulin 4)	1	-1.06	60.9	-0.929
TMOD4 (tropomodulin 4)	2	-0.346	75	-0.421
TMOD4 (tropomodulin 4)	3	0.782	97.4	1.12
DUSP15 (dual specificity phosphatase 15)	1	-0.534	71.3	-0.801
DUSP15 (dual specificity phosphatase 15)	2	1.11	104	0.888
DUSP15 (dual specificity phosphatase 15)	3	0.114	84.2	-0.684
OR6K6 (olfactory receptor family 6 subfamily K member 6)	1	1.16	105	0.402
OR6K6 (olfactory receptor family 6 subfamily K member 6)	2	-0.629	69.4	-0.968
OR6K6 (olfactory receptor family 6 subfamily K member 6)	3	-0.959	62.8	-1.66
RPS19 (ribosomal protein S19)	1	-2.39	34.3	-0.485
RPS19 (ribosomal protein S19)	2	-2.17	38.8	-0.12
RPS19 (ribosomal protein S19)	3	-1.56	50.8	-1.07
PEG3 (paternally expressed 3)	1	0.365	89.1	0.161
PEG3 (paternally expressed 3)	2	-0.805	65.9	-0.792
PEG3 (paternally expressed 3)	3	0.448	90.8	-0.179
TCIM (transcriptional and immune response regulator)	1	-0.167	78.6	0.407
TCIM (transcriptional and immune response regulator)	2	0.0491	82.9	-0.352
TCIM (transcriptional and immune response regulator)	3	1.1	104	0.67
IGSF23 (immunoglobulin superfamily member 23)	1	-1.55	51.1	-2.19
IGSF23 (immunoglobulin superfamily member 23)	2	-1.23	57.5	-0.564
IGSF23 (immunoglobulin superfamily member 23)	3	1.39	110	3.02
SMARCC2 (SWI/SNF related BAF chromatin remodeling complex subunit C2)	1	0.311	88.1	0.0536
SMARCC2 (SWI/SNF related BAF chromatin remodeling complex subunit C2)	2	0.082	83.5	0.0584
SMARCC2 (SWI/SNF related BAF chromatin remodeling complex subunit C2)	3	-1.22	57.7	-1.35
